The target in one test is T1, glutamylated rGST-DNAJC7 (UniProt Q99615).
T1 sequence (chain, glutamylated (sites and how it was glutamylated not stated)): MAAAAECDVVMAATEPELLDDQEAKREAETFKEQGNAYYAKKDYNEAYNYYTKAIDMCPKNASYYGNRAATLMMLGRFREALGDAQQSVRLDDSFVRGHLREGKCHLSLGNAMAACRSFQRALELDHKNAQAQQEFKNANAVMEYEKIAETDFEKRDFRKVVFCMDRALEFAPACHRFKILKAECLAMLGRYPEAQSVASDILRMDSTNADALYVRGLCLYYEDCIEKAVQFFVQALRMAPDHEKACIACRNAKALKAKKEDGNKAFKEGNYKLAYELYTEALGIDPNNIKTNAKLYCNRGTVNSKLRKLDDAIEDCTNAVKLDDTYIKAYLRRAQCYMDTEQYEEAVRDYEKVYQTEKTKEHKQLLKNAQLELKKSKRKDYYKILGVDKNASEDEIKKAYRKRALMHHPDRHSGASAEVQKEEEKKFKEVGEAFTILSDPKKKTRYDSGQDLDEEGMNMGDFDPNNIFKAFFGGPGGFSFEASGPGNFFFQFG
In words: pull-down; GST-DNAJC7 incubated with lysates from Myc-tagged CCP6-wt and Myc-tagged CCP6-mut 293T cells; repeated three times; only the target purified.

The target in test [1] is T2, DNAJC7 cotransfected in 293T cells (UniProt Q99615).
T2 sequence: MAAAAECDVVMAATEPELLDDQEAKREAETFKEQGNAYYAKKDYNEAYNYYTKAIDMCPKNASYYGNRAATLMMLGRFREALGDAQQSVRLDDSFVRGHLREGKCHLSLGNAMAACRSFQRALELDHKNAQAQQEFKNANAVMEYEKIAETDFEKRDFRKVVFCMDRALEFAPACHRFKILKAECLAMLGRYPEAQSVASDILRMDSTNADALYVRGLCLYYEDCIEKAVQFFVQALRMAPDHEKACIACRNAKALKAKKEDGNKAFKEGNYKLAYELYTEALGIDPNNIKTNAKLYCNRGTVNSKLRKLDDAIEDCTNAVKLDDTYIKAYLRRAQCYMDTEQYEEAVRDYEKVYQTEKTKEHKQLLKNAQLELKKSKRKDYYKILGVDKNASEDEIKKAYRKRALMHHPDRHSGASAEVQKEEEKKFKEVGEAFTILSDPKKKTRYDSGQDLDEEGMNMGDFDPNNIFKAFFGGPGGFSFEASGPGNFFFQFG
In words: co-IP; CCP6-mut and DNAJC7 cotransfected in 293T cells; data not shown.

Results are given in words; binding and its absence hold for the method and conditions named. Binding seen in cells or lysates may run through a third protein. Some results given as binding are weak or reduced against the parent protein; the word gives no strength. Where a sequence is shown, tags or fusion partners need not be part of it.

B1: Myc-tagged CCP6-mut (H230S/E233Q) in 293T cells (enzyme, UniProt Q5VU57 1-503)
chain: MAEGSQSAPEAGNDMGNDDAIGGNVSKYIVLPTGYCGQPKKGHLIFDACFESGNLGRVDQVSEFEYDLFIRPDTCNPRFRVWFNFTVENVKESQRVIFNIVNFSKTKSLYRDGMAPMVKSTSRPKWQRLPPKNVYYYRCPDHRKNYVMSFAFCFDREEDIYQFAYCYPYTYTRFQHYLDSLQKRNMDYFFREQLGQSVQQRKLDLLTITSPDNLREGAEQKVVFITGRVSPGQTPSSFVCQGIIDFLVSQHPIACVLREYLVFKIAPMLNPDGVYLGNYRCSLMGFDLNRHWLDPSPWVHPTLHGVKQLIVQMYNDPKTSLEFYIDIHAHSTMMNGFMYGNIFEDEERFQRQAIFPKLLCQNAEDFSYSSTSFNRDAVKAGTGRRFLGGLLDHTSYCYTLEVSFYSYIISGTTAAVPYTEEAYMKLGRNVARTFLDYYRLNPVVEKVAIPMPRLRNKEIEVQRRKEKSPPYKHPLLRGPASNYPNSKGDKKSSVNHKDPSTPF
In the case of B1, the binding entry (with glutamylated rGST-DNAJC7; in test [1]) was “binds” each time.

B2: Myc-tagged CCP6-wt in 293T cells (enzyme, UniProt Q5VU57 1-503)
chain: MAEGSQSAPEAGNDMGNDDAIGGNVSKYIVLPTGYCGQPKKGHLIFDACFESGNLGRVDQVSEFEYDLFIRPDTCNPRFRVWFNFTVENVKESQRVIFNIVNFSKTKSLYRDGMAPMVKSTSRPKWQRLPPKNVYYYRCPDHRKNYVMSFAFCFDREEDIYQFAYCYPYTYTRFQHYLDSLQKRNMDYFFREQLGQSVQQRKLDLLTITSPDNLREGAEQKVVFITGRVHPGETPSSFVCQGIIDFLVSQHPIACVLREYLVFKIAPMLNPDGVYLGNYRCSLMGFDLNRHWLDPSPWVHPTLHGVKQLIVQMYNDPKTSLEFYIDIHAHSTMMNGFMYGNIFEDEERFQRQAIFPKLLCQNAEDFSYSSTSFNRDAVKAGTGRRFLGGLLDHTSYCYTLEVSFYSYIISGTTAAVPYTEEAYMKLGRNVARTFLDYYRLNPVVEKVAIPMPRLRNKEIEVQRRKEKSPPYKHPLLRGPASNYPNSKGDKKSSVNHKDPSTPF
On to B2, for which the binding result in the test with glutamylated rGST-DNAJC7 was “binds”.

(Values after article PMC5008367.)
